Some of these results come from one statement about several compounds together.
Tests used:
Phakopsora pachyrhizi = assay: Example A8: Phakopsora pachyrhizi / soybean / preventative (soybean rust); assay type: in vivo; settings: 200 ppm; soybean leaf disks preventative, compared to untreated control
[1] = tested on: Mycosphaerella graminicola (Septoria tritici); assay: Example A14: Mycosphaerella graminicola (Septoria tritici) / liquid culture (Septoria blotch); assay type: cell-based; settings: 20 ppm, compared to untreated control
[2] = tested on: Mycosphaerella arachidis (Cercospora arachidicola); assay: Example A7: Mycosphaerella arachidis (Cercospora arachidicola) / liquid culture (early leaf spot); assay type: cell-based; settings: 20 ppm, compared to untreated control
[3] = tested on: Phaeosphaeria nodorum (Septoria nodorum); assay: Example A5: Phaeosphaeria nodorum (Septoria nodorum) / wheat / leaf disc preventative (glume blotch); assay type: in vivo; settings: 200 ppm, compared to untreated control
[4] = tested on: Botryotinia fuckeliana (Botrytis cinerea); assay: Example A2: Botryotinia fuckeliana (Botrytis cinerea) / liquid culture (gray mould); assay type: cell-based; settings: 20 ppm, compared to untreated control

| Compound | control of Phakopsora pachyrhizi (Phakopsora pachyrhizi) | control of Mycosphaerella graminicola [1] | control of Mycosphaerella arachidis [2] | control of Phaeosphaeria nodorum [3] | control of Botryotinia fuckeliana [4] |
| --- | --- | --- | --- | --- | --- |
| COC(C)C(=O)N(c1cc(F)nc(F)c1)c1nc(C(=O)NC2CCC2(C)C)c(C)s1 (centres unmarked) [X.09, 2-[(2,6-difluoro-4-pyridyl)-(2-methoxypropanoyl)amino]-N-(2,2-dimethylcyclobutyl)-5-methyl-thiazole-4-carboxamide] | at least 80% | at least 80% |  |  |  |
| Cc1sc(N(C(=O)C(C)S(C)(=O)=O)c2cc(F)nc(F)c2)nc1C(=O)NC1CCC1(C)C (centres unmarked) [X.10, 2-[(2,6-difluoro-4-pyridyl)-(2-methylsulfonylpropanoyl)amino]-N-(2,2-dimethylcyclobutyl)-5-methyl-thiazole-4-carboxamide] |  | at least 80% | at least 80% | at least 80% |  |
| Cc1sc(N(C(=O)C2COC2)c2cc(F)nc(F)c2)nc1C(=O)NC1CCC1(C)C (centres unmarked) [X.04, 2-[(2,6-difluoro-4-pyridyl)-(oxetane-3-carbonyl)amino]-N-(2,2-dimethylcyclobutyl)-5-methyl-thiazole-4-carboxamide] | at least 80% | at least 80% |  |  | at least 80% |
| Cc1sc(N(C(=O)C2CCOCC2)c2cc(F)nc(F)c2)nc1C(=O)NC1CCC1(C)C (centres unmarked) [X.11, 2-[(2,6-difluoro-4-pyridyl)-(tetrahydropyran-4-carbonyl)amino]-N-(2,2-dimethylcyclobutyl)-5-methyl-thiazole-4-carboxamide] |  | at least 80% |  |  |  |
| Cc1sc(N(C(=O)C2CCOC2)c2cc(F)nc(F)c2)nc1C(=O)N(C(=O)C1CCOC1)C1CCC1(C)C (centres unmarked) [Compound X.01, 2-[(2,6-difluoro-4-pyridyl)-(tetrahydrofuran-3-carbonyl)amino]-N-(2,2-dimethylcyclobutyl)-5-methyl-N-(tetrahydrofuran-3-carbonyl)thiazole-4-carboxamide] |  | at least 80% | at least 80% |  |  |
| Cc1sc(N(C(=O)C2CCOC2)c2cc(F)nc(F)c2)nc1C(=O)NC1CCC1(C)C (centres unmarked) [X.03, 2-[(2,6-difluoro-4-pyridyl)-(tetrahydrofuran-3-carbonyl)amino]-N-(2,2-dimethylcyclobutyl)-5-methyl-thiazole-4-carboxamide] | at least 80% | at least 80% |  | at least 80% |  |
| Cc1sc(N(C(=O)C2CCCO2)c2cc(F)nc(F)c2)nc1C(=O)NC1CCC1(C)C (centres unmarked) [X.02, 2-[(2,6-difluoro-4-pyridyl)-(tetrahydrofuran-2-carbonyl)amino]-N-(2,2-dimethylcyclobutyl)-5-methyl-thiazole-4-carboxamide] | at least 80% | at least 80% | at least 80% | at least 80% | at least 80% |
| Cc1sc(N(C(=O)C(C)OC(C)C)c2cc(F)nc(F)c2)nc1C(=O)NC1CCC1(C)C (centres unmarked) [X.06, 2-[(2,6-difluoro-4-pyridyl)-(2-isopropoxypropanoyl)amino]-N-(2,2-dimethylcyclobutyl)-5-methyl-thiazole-4-carboxamide] | at least 80% |  |  |  |  |
